In patent US10590100B2, “Benzofuran derivatives for the treatment of CNS and other disorders” (WARNER BABCOCK INSTITUTE FOR GREEN CHEMISTRY, priority 2015, dated 2020):

experiment: Test compound fluorescence in the same range as Bis-ANS fluorescence; type: physicochemical; conditions: 60 μM test compounds, 390 nm excitation/490 nm emission, after addition of zinc(II) sulfate

Row | Structure (SMILES) | Fluorescence change with Zn2+ (derivatives with significant fluorescence) | Fluorescence change with Zn2+ (derivatives with slight fluorescence)
1 | CC(C)(C)c1ccc(-c2cc3ccc(C=C(C#N)C(=O)O)cc3o2)cc1 [BC-167, 3-(2-(4-(tert-butyl)phenyl)benzofuran-6-yl)-2-cyanoacrylic acid] | Significant increase | –
2 | N#CC(=Cc1ccc2cc(-c3ccc(Oc4ccccc4)cc3)oc2c1)C(=O)O [BC-171, 2-cyano-3-(2-(4-phenoxyphenyl)benzofuran-6-yl)acrylic acid] | No change | –
3 | COc1ccc(N(c2ccc(OC)cc2)c2ccc(-c3cc4ccc(C=CC#N)cc4o3)cc2)cc1 [BC-157, 3-(2-(4-(bis(4-methoxyphenyl)amino)phenyl)benzofuran-6-yl)acrylonitrile] | Slight increase | –
4 | COc1ccc(-c2ccc(-c3cc4ccc(C=C(C#N)C(=O)O)cc4o3)cc2)cc1OC [BC-165, 2-cyano-3-(2-(3′,4′-dimethoxy-[1,1′-biphenyl]-4-yl)benzofuran-6-yl)acrylic acid] | Significant increase | –
5 | COc1ccc(-c2cc3ccc(C=C(C#N)C(=O)O)cc3o2)cc1 [BC-168, 2-cyano-3-(2-(4-methoxyphenyl)benzofuran-6-yl)acrylic acid] | Significant increase | –
6 | COC(=O)/C=C/c1ccc2cc(-c3ccc(N(c4ccccc4)c4ccccc4)cc3)oc2c1 [BC-170, methyl (E)-3-(2-(4-(diphenylamino)phenyl)benzofuran-6-yl)acrylate] | No change | –
7 | O=C(O)/C=C/c1ccc2cc(-c3ccc(N(c4ccccc4)c4ccccc4)cc3)oc2c1 [BC-153, (E)-3-(2-(4-(diphenylamino)phenyl)benzofuran-6-yl)acrylic acid] | Increase | –
8 | NC(=O)C(=Cc1ccc2cc(-c3ccc(N(c4ccccc4)c4ccccc4)cc3)oc2c1)C(N)=O [BC-155, 2-((2-(4-(diphenylamino)phenyl)benzofuran-6-yl)methylene)malonamide] | – | No change
9 | N#CC(=Cc1ccc(-c2cc3ccc(N(c4ccccc4)c4ccccc4)cc3o2)cc1)C(=O)O [BC-147, 2-cyano-3-(4-(6-(diphenylamino)benzofuran-2-yl)phenyl)acrylic acid] | – | Quenched
